Experimental data: article PMC7819943, “Rice protein-binding microarrays: a tool to detect cis-acting elements near promoter regions in rice”
The other results are listed elsewhere or left out.

Amino acid sequences for entries named in this document (tags omitted).
UniProt Q0JBA9, entry or part of it: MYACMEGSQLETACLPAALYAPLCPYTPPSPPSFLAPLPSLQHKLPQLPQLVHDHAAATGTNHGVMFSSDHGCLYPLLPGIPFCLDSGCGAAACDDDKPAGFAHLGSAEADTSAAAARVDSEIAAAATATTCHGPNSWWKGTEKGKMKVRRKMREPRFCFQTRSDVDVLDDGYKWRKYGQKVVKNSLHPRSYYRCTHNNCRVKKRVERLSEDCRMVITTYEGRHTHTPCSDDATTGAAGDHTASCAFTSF

Molecular target: OsWRKY34 (Oryza sativa, UniProt Q0JBA9 1-250)
Assay: protein-binding microarray (RPBM); PBS, 2% BSA, 51.3 ng/ul salmon testes DNA, 50 uM zinc acetate, 200 nM TF, 25 C, 1 h; high values mean tight binding
Conditions: protein: recombinant; tags: N-terminal polyhistidine and DsRed monomer fusion (pET32a); label: CyDye5-dUTP incorporated in the synthesized complementary strand; 3' TTTTT single-stranded linker to array surface; dsDNA, one strand shown
Outline: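 For the binding signal, per-feature fluorescence intensity was read in arbitrary units on an Axon 4000B scanner. Before scanning, a 2% BSA-blocked custom Agilent array made double-stranded with Cy5-dUTP was washed after 1 h at 25 °C with 200 nM protein and 50 µM zinc acetate. The proteins were Ni–NTA-purified transcription factors with N-terminal polyhistidine and DsRed fusions, expressed in E. coli BL21-CodonPlus.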

Row | Sequence | binding signal
1 | TTCCTCAGCTTTGCTTCCGGCCGTCGCAATCGAGGATACTCGGAGTCACCTAGTGCAG | 8480 fluorescence intensity (a.u.)
2 | GACTAGATTAGGCCATCCAATATATTGTACTCATGTGATACGGAGTCACCTAGTGCAG | 9170 fluorescence intensity (a.u.)
3 | GAAATATTTGACACCGTTGACTTTTTAGCATATGTTTGACCGGAGTCACCTAGTGCAG | 30700 fluorescence intensity (a.u.)
4 | GTTGCGTCTGGTTTTTCGGTTGAGGGTCGAAAATCGAATTCGGAGTCACCTAGTGCAG | 8320 fluorescence intensity (a.u.)
5 | CGGTATAATGAGCATACACTTCACCTCTTATTTTCATCTCCGGAGTCACCTAGTGCAG | 11200 fluorescence intensity (a.u.)
6 | ATTCTAGTCGTAGCCGATCTGGACTCCAGCCGATTCTTACCGGAGTCACCTAGTGCAG | 9920 fluorescence intensity (a.u.)
7 | GGTTCTGCATTTCCACTGTGCAATTCGGCCATCCTTGATCCGGAGTCACCTAGTGCAG | 8490 fluorescence intensity (a.u.)
8 | ACTCGAAACTACTGCCCCATCGTACTCACCACCTGCCCCTCGGAGTCACCTAGTGCAG | 11600 fluorescence intensity (a.u.)
9 | AGCCATCAGTCCATCACCATCTGCTAATCTCTCACATTCACGGAGTCACCTAGTGCAG | 8660 fluorescence intensity (a.u.)
10 | GTGCTCCTTTCCTGTTACTACTCCCTCCGTCCCGGATTTTCGGAGTCACCTAGTGCAG | 10500 fluorescence intensity (a.u.)
11 | ACACATGCACATCCACCATACCAAAGTACAATTACTGAACCGGAGTCACCTAGTGCAG | 11600 fluorescence intensity (a.u.)
12 | AATGTTTTCTTTCTTTCCTAGGTGGGTTTTTTTGGGCCCACGGAGTCACCTAGTGCAG | 9780 fluorescence intensity (a.u.)
13 | ATTTCCGTTATCATACTTTACGAACTACTACACAATATATCGGAGTCACCTAGTGCAG | 9300 fluorescence intensity (a.u.)
14 | CGGGGTTGTTGGGGCAGCATCCAGGGCAAGTCCAGTGAAGCGGAGTCACCTAGTGCAG | 9950 fluorescence intensity (a.u.)
15 | GACTGATCGCCGCTACCCCTACACGGGGAAACCAATTTTTCGGAGTCACCTAGTGCAG | 8530 fluorescence intensity (a.u.)
16 | GGTCCGACCTTTTATTTTGCTTCCAAGTGCCACATCACCGCGGAGTCACCTAGTGCAG | 8260 fluorescence intensity (a.u.)
17 | ACGTATTTGTGAGGGGATTTGGTACCATTACATCTGTTTTCGGAGTCACCTAGTGCAG | 8192 fluorescence intensity (a.u.)
18 | TGAAGAACGACGCACAACCACCCGCGGCTCAACTCGTCCACGGAGTCACCTAGTGCAG | 8970 fluorescence intensity (a.u.)
19 | ACATAGTTTTCTTCTCTTTCCTCATTTATTCACTTGCCACCGGAGTCACCTAGTGCAG | 9390 fluorescence intensity (a.u.)
20 | AACCCCTATGCTTCCTCGGTCATCCATGCGTCTATATTGTCGGAGTCACCTAGTGCAG | 9370 fluorescence intensity (a.u.)
21 | GTCATCTCACGGAGCGGGTTGGAGTCCATTTAGATCTATACGGAGTCACCTAGTGCAG | 8500 fluorescence intensity (a.u.)

Some of the entries so far, comma-delimited:
Row,Sequence,binding signal
3,GAAATATTTGACACCGTTGACTTTTTAGCATATGTTTGACCGGAGTCACCTAGTGCAG,30700 fluorescence intensity (a.u.)
20,AACCCCTATGCTTCCTCGGTCATCCATGCGTCTATATTGTCGGAGTCACCTAGTGCAG,9370 fluorescence intensity (a.u.)

(continued)

Row | Sequence | binding signal
22 | CTGTCTTTCGTCCGCGAAAATTTTCCATTCTTGCGCTTCCCGGAGTCACCTAGTGCAG | 9530 fluorescence intensity (a.u.)
23 | GTTGGTTTTTACATTTGTTTGCTCGAGTCATATATGTCGTCGGAGTCACCTAGTGCAG | 9010 fluorescence intensity (a.u.)
24 | CGATGCCACCGCCCCTGCCTGCTTTGCCCGCCGCCGCTCTCGGAGTCACCTAGTGCAG | 10400 fluorescence intensity (a.u.)
25 | AGCCAGAGGGGAGGGAGCGGGTAGGGTTTTACCTCCTCCCCGGAGTCACCTAGTGCAG | 8250 fluorescence intensity (a.u.)
26 | CGCCCCGTCGCCACTCTGTTGCCTCCACCAATCTCCTGCACGGAGTCACCTAGTGCAG | 10100 fluorescence intensity (a.u.)
27 | TCTGTATATAAGGCCTGATTTAGTTCCCAAATTTTTTTTCCGGAGTCACCTAGTGCAG | 8100 fluorescence intensity (a.u.)
28 | ATCGCACGCAACGAAGACAGACCGTCAGCCTTCACTCACTCGGAGTCACCTAGTGCAG | 9720 fluorescence intensity (a.u.)
29 | TCTAGGCATGGTTCAGTAGTCAAAGCAACTTCGTCACTTTCGGAGTCACCTAGTGCAG | 9650 fluorescence intensity (a.u.)
30 | TCGTTTTAATTGACCACGTACTCAATCCGGTACTCTCCTTCGGAGTCACCTAGTGCAG | 8330 fluorescence intensity (a.u.)
31 | TGTTTGGATGATTTTATGGATGATCACTTCTCTTTATTTACGGAGTCACCTAGTGCAG | 8320 fluorescence intensity (a.u.)
32 | CCATGGCGGTGTGTCTCCTCAACTTTGCTACTCCAGTTGCCGGAGTCACCTAGTGCAG | 8040 fluorescence intensity (a.u.)
33 | TTCTGCTACTACCACATATTCAGTTCTTTTACCAACTTTACGGAGTCACCTAGTGCAG | 10800 fluorescence intensity (a.u.)
34 | ATACTGCTGTTCGTAACATCCTTGCAGCTGCAGCCCACAACGGAGTCACCTAGTGCAG | 9450 fluorescence intensity (a.u.)
35 | ACTATAATGATTTCCTGTGTGGTTGATCTTAGCCTCTAGTCGGAGTCACCTAGTGCAG | 8560 fluorescence intensity (a.u.)
36 | ACTTGCTACAGTTGGACTCTTTGATATTCATTTCCATGTCCGGAGTCACCTAGTGCAG | 11600 fluorescence intensity (a.u.)
37 | TAGGTTATCATCTTTGCCTCCTGCCGCCATAGTAGTCGCCCGGAGTCACCTAGTGCAG | 8060 fluorescence intensity (a.u.)
38 | CGACCGATGCGGTTGGGTCGGGTCGGGTCGGGTCGGATCCCGGAGTCACCTAGTGCAG | 10100 fluorescence intensity (a.u.)
39 | CCGTCGTCGTCTTCGTCTTCCTCAGTTTATCTCCATTTCTCGGAGTCACCTAGTGCAG | 13800 fluorescence intensity (a.u.)
40 | TCGGCAACATAGATTCCCATTTATATCCCCTTGTAGTACTCGGAGTCACCTAGTGCAG | 8720 fluorescence intensity (a.u.)
41 | TAAATCATGACTCAGGGCAGGCAGGGTTCACTTTTTTTTTCGGAGTCACCTAGTGCAG | 9230 fluorescence intensity (a.u.)
42 | GGTCGTTTGTTCTTTTGTCTTGCCTATTATGCTCCGTCATCGGAGTCACCTAGTGCAG | 15100 fluorescence intensity (a.u.)
